Experimental data taken from PMC4778132, “CC chemokine receptor 10 cell surface presentation in melanocytes is regulated by the novel interaction partner S100A10” (Scientific Reports, 2016).
Results are given in words; binding and its absence hold for the method and conditions named. For some of these results: In cells and extracts the contact can be indirect. Some results given as binding are weak or reduced against the parent protein; the word gives no strength. For some of these results: Sequences can lack the tags named with a protein. Blank lines part the entries; values can stand above or below the substance they belong to.

Protein sequences, listed by entry. Tags and fused reporters are not part of them.
UniProt P60903: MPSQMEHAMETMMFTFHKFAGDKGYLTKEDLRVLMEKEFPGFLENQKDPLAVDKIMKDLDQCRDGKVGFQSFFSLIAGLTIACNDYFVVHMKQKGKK
UniProt P07355: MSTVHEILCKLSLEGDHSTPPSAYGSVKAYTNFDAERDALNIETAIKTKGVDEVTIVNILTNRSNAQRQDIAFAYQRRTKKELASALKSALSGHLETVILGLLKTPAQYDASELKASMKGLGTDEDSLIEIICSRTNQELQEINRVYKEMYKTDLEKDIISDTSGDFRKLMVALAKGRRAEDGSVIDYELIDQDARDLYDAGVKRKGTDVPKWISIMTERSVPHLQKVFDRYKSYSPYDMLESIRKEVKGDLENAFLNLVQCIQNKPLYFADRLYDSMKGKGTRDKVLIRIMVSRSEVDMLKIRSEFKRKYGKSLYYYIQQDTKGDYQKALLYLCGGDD

Columns and labels:
[1] = target: T1, GST-CCR10 CT (C-terminal cytoplasmic tail of human CCR10 fused to GST) (human) (UniProt P46092); experiment: pull-down; GST fusion proteins (50 μg) on glutathione sepharose beads incubated with UKRV-Mel-4 cell lysate (500 μl, ~2 × 10^7 cells), 2 hours at 4 °C, IP buffer (20 mM Tris-HCl pH 7.5, 25 mM NaCl, 10 mM NaF, 1 mM EDTA, 0.1% Triton-X 100); immunoblot; only the target purified
T1 sequence: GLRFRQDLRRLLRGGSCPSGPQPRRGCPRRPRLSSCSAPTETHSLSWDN

[2] = target: T2, endogenous CC chemokine receptor 10 of UKRV-Mel-4 melanoma cells (human (endogenous in UKRV-Mel-4)) (UniProt P46092); experiment: proximity ligation; Duolink II in situ PLA on fixed UKRV-Mel-4 cells with primary antibodies against CCR10 and β-actin, S100A10 (H21) or anxA2 (HH7); cells transfected with control siRNA or S100A10 siRNA
T2 sequence: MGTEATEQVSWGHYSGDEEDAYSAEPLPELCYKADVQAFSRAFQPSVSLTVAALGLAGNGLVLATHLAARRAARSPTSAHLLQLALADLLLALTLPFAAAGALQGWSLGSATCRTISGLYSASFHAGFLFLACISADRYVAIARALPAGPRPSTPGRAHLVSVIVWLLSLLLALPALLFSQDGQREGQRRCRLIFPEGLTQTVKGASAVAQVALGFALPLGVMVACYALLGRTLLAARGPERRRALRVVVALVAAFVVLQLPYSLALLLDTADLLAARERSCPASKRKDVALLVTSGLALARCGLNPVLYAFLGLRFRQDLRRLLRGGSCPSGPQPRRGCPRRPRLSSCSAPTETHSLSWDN

[3] = target: T1, GST-CCR10 CT (C-terminal cytoplasmic tail of human CCR10 fused to GST) (human); experiment: pull-down; GST fusion proteins (50 μg) on glutathione sepharose beads incubated with purified protein (10 μg), 2 hours at 4 °C, IP buffer (20 mM Tris-HCl pH 7.5, 25 mM NaCl, 10 mM NaF, 1 mM EDTA, 0.1% Triton-X 100); immunoblot; both purified
[4] = target: T3, GST-CCR10 CT truncation mutant T2 (human) (UniProt P46092); experiment: as above
T3 sequence: GLRFRQDLRRLL

- binding [1]: binds
- binding [2]: binds
Substance: endogenous S100A10 of UKRV-Mel-4 melanoma cells (from UniProt P60903 1-97)

Substance: purified recombinant human annexin A2 (from UniProt P07355 1-339)
- binding [3]: no binding (tested: 10 μg purified protein)

- binding [4]: binds weakly
Substance: recombinant HIS-tagged human S100A10 (wild type) (from UniProt P60903 1-97)
